Results are given in words; binding and its absence hold for the method and conditions named. In cells and extracts the contact can be indirect. Some binding calls cover weakened binding; strength is not graded here. For some of these results: Sequences can lack the tags named with a protein.

Protein sequences, listed by entry. Tags and fused reporters are not part of them. Lines headed by an entry give the natural chain unless they say otherwise; changes in a name come on top. Residues count along the entry.
UniProt Q68DV7, residues 24-783: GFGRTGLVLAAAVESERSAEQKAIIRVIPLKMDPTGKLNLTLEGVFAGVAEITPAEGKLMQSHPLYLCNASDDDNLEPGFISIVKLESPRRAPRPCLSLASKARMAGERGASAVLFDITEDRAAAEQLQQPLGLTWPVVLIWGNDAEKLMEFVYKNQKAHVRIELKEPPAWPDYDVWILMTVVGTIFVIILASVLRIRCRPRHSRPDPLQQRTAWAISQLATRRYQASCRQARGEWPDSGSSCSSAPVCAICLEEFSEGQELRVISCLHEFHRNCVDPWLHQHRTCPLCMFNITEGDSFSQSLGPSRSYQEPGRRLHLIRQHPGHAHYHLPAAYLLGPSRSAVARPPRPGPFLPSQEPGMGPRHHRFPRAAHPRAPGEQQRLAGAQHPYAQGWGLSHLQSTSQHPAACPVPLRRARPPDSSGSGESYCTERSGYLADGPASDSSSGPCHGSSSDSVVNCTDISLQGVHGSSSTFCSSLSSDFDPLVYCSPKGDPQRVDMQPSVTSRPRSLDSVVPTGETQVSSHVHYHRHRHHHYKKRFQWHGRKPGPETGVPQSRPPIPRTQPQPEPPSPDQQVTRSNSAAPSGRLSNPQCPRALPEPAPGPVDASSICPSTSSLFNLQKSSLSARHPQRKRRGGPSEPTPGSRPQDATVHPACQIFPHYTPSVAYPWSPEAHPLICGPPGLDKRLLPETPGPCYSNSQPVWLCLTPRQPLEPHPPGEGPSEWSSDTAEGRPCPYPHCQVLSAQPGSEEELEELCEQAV
UniProt P49674: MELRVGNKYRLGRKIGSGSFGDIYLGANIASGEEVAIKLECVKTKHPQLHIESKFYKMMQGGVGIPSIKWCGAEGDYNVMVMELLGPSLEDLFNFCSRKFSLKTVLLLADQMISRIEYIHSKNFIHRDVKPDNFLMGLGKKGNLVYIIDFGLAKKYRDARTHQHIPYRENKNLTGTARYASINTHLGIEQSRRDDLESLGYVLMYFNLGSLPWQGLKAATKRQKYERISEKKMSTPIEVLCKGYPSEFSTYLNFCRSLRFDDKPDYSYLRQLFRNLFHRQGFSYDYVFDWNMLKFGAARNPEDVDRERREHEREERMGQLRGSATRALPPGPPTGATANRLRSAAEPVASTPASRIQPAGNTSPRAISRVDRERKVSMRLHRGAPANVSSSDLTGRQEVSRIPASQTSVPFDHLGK

The results in this text go back to PMC12859043.

In assay [1] the target is RNF43-FLAG (human) (UniProt Q68DV7). The experiment in a line: co-IP; HEK T-REx 293 PRICKLE3 TetON cells transfected with RNF43-FLAG and EGFP-VANGL2, with or without overnight doxycycline induction of HA-PRICKLE3; Western blot, endogenous CK1ε quantified by densitometry. (In western blotting, separated proteins are transferred to a membrane and probed.)
In assay [2] the target is T1, HA-tagged PRICKLE3 (human) (UniProt O43900).
T1 sequence: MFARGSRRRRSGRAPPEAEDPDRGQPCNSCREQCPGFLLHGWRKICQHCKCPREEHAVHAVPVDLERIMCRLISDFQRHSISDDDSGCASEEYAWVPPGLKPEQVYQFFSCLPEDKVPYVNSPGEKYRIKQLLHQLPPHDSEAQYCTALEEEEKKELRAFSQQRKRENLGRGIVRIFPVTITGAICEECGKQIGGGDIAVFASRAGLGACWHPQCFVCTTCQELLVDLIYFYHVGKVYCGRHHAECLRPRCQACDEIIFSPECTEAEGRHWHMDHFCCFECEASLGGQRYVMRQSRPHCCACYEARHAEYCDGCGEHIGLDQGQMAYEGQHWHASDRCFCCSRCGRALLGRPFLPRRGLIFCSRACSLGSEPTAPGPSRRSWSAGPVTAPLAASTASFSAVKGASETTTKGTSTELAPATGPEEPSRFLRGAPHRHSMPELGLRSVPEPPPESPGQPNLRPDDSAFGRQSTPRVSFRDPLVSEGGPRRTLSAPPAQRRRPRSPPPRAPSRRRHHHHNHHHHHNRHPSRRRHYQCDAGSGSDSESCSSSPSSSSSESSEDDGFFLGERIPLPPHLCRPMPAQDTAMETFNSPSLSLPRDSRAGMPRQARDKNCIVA
The experiment in a line: co-IP; anti-HA IP (IgG control) from HEK T-REx 293 PRICKLE3 or PRICKLE1 TetON cells induced overnight with doxycycline; Western blot for endogenous proteins.

Assay [3] has as its target T2, GFP-tagged PRICKLE3 C-terminal fragment (aa 372–615) (human) (UniProt O43900).
T2 sequence: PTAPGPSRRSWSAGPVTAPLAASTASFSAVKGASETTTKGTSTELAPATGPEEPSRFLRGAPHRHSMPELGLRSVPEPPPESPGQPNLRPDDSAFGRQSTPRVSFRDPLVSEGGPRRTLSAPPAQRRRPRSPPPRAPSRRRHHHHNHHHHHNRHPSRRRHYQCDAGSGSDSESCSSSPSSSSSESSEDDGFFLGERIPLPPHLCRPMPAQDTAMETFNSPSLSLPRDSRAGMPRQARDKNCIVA
In words: co-IP; anti-GFP IP of GFP-tagged PRICKLE3 deletion constructs; Western blot for CK1ε.

The target of assay [4] is T3, GFP-tagged PRICKLE3 N-terminal fragment (aa 1–375) (human) (UniProt O43900).
T3 sequence: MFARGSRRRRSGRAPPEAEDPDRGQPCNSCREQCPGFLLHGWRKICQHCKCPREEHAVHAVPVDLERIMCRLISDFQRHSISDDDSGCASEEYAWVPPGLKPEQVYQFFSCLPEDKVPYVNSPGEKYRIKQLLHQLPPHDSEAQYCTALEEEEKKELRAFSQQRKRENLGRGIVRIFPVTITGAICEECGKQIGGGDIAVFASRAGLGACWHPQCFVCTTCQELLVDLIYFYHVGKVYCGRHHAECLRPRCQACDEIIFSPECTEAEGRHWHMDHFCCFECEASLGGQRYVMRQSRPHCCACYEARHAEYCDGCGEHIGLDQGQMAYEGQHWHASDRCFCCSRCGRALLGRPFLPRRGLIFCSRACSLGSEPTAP
Described as above.

With “Casein kinase 1ε (endogenous) (from UniProt P49674 1-416) (enzyme)”, the binding entry in assay [1] and in assay [2] was “binds” in each case.
For “CK1ε (co-IP with the GFP-PRICKLE3 deletion constructs, Fig. 5d) (from UniProt P49674 1-416) (enzyme)”, the binding entry in assay [3] and in assay [4] was “binds” throughout.
